In article PMC5085234, “Monomeric gremlin is a novel vascular endothelial growth factor receptor-2 antagonist” (Oncotarget, 2016):
No constants are given. Whether binding was seen depends on the method and setting. Some results given as binding are weak or reduced against the parent protein; the word gives no strength. Tags and fused reporters may be left off the sequences shown.

Protein sequences, listed by entry. Tags and fused reporters are not part of them. Residues count along the entry.
UniProt P35918, residues 20-1345: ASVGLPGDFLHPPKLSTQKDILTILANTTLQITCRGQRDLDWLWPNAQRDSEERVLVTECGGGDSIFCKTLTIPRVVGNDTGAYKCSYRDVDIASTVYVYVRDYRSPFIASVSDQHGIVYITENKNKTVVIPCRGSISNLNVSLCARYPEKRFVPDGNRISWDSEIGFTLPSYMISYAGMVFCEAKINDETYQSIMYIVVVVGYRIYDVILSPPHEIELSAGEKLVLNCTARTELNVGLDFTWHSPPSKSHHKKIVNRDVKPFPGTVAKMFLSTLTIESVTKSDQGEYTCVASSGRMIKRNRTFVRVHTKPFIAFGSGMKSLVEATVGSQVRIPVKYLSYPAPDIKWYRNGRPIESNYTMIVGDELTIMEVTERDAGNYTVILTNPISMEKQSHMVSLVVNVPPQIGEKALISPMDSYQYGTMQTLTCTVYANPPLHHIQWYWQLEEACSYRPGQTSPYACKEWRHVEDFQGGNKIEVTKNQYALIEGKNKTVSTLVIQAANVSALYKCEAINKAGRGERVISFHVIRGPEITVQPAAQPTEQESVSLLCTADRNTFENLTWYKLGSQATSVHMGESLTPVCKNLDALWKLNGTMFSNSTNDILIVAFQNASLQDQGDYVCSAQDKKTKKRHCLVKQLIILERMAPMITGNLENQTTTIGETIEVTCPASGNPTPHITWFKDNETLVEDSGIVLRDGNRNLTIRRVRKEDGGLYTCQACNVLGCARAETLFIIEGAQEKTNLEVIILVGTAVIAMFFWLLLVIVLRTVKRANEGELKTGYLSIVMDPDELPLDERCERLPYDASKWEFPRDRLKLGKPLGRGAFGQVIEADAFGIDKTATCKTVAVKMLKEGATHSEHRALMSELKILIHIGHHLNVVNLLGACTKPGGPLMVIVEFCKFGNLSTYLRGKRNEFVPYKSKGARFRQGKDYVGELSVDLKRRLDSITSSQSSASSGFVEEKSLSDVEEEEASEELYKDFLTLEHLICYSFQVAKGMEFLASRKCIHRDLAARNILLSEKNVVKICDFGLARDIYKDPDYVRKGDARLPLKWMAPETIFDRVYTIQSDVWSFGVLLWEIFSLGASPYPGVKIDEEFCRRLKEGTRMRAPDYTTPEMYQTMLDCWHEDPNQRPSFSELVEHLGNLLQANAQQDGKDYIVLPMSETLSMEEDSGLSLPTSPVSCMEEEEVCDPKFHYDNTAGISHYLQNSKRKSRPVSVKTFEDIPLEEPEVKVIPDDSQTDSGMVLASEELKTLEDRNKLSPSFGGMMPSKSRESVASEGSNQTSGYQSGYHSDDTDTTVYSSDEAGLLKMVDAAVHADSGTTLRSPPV

T1: his-tagged gremlin^C141A mutant, rat (rat, UniProt O35793 25-184, C141A)
T1 construct: secreted into the medium; monomer; also called gremlin^C141A monomer; monomeric gremlin^C141A; not shown: His tag, C-terminal, kept
T1 sequence (looked up): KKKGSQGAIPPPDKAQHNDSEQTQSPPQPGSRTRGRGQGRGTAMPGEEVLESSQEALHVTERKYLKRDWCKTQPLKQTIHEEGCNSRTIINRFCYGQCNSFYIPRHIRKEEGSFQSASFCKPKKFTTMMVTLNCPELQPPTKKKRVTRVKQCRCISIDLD


Assays:
[1] = target: mouse VEGFR2 on VEGFR2-overexpressing ECs (GM7373 cells) (mouse) (UniProt P35918); experiment: ELISA; VEGFR2-overexpressing ECs incubated with 150 ng/mL of gremlin with or without 1.5 ug of VEGF-A165 for 2 hours at 4°C, washed with 2.0 M NaCl to remove gremlin bound to HSPGs, bound gremlin detected with anti-gremlin antibody; only the binder purified
[2] = target: T1, his-tagged gremlin^C141A mutant, rat; experiment: cross-linking; 0.05% glutaraldehyde for 20 minutes at RT, SDS-PAGE under reducing conditions, anti-gremlin WB; both purified
[3] = target: T1, his-tagged gremlin^C141A mutant, rat; experiment: non-reducing SDS-PAGE with Western blot; recombinant his-tagged gremlin purified by IMAC (and heparin-affinity chromatography), SDS-PAGE without beta-mercaptoethanol, anti-gremlin WB, silver staining; both purified

binding [1]	binding [2]	binding [3]	Binder
binds			his-tagged wild-type gremlin (gremlin^WT), rat (natural protein, UniProt O35793 25-184, looked up, secreted into the medium; covalent homodimer through Cys141; The IMAC-purified preparation holds monomer and dimer (used for non-reducing SDS-PAGE and SEC); the heparin 1.2 M NaCl fraction holds only the disulfide-linked dimer (98.5% purity) and is the form used in ELISA, SPR and cell assays; N-glycosylated and non-glycosylated forms are present; also called gremlin^WT dimer; dimeric gremlin^WT; …) KKKGSQGAIPPPDKAQHNDSEQTQSPPQPGSRTRGRGQGRGTAMPGEEVLESSQEALHVTERKYLKRDWCKTQPLKQTIHEEGCNSRTIINRFCYGQCNSFYIPRHIRKEEGSFQSCSFCKPKKFTTMMVTLNCPELQPPTKKKRVTRVKQCRCISIDLD
binds	no binding	no binding	his-tagged gremlin^C141A mutant, rat (protein, UniProt O35793 25-184) KKKGSQGAIPPPDKAQHNDSEQTQSPPQPGSRTRGRGQGRGTAMPGEEVLESSQEALHVTERKYLKRDWCKTQPLKQTIHEEGCNSRTIINRFCYGQCNSFYIPRHIRKEEGSFQSASFCKPKKFTTMMVTLNCPELQPPTKKKRVTRVKQCRCISIDLD
